No constants are given. Whether binding was seen depends on the method and setting. In cells and extracts the contact can be indirect. Some binding calls cover weakened binding; strength is not graded here.
How the values were obtained:
[1] = target: APJ-Renilla luciferase (Rluc) (UniProt P35414); assay: FRET or BRET; BRET in living HEK293 cells transiently co-transfected with APJ-Rluc and GRK2-GFP2 or GRK5-GFP2; stimulated with the six peptide ligands; time and dose-response curves; coelenterazine h 5 μM
[2] = target: β2-adaptin EYFP (AP2, β2 subunit of the clathrin adaptor) (UniProt P63010); assay: FRET or BRET; BRET in living HEK293 cells co-transfected with APJ, β-arrestin 1-Rluc or β-arrestin 2-Rluc, and β2-adaptin-EYFP; stimulated with the six peptide ligands; time and dose-response curves, read at 30 min
APJ-Venus = APJ-Venus (UniProt P35414); assay: FRET or BRET; BRET in living HEK293 cells transiently co-transfected with APJ-Venus and β-arrestin1-Rluc or β-arrestin2-Rluc; stimulated with the six peptide ligands; time and dose-response curves

The chains behind the UniProt entries cited, without tags or fusion partners.
UniProt P35414: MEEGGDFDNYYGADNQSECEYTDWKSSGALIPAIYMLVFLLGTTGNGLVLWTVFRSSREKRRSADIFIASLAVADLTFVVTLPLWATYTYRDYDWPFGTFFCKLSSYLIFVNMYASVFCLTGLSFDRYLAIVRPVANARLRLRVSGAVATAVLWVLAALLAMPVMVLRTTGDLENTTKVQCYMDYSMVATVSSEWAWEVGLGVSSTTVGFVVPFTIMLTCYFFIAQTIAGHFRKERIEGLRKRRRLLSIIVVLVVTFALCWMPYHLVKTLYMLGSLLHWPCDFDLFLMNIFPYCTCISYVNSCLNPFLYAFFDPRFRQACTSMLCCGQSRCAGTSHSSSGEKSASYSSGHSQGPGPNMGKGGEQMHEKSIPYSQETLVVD
UniProt P63010: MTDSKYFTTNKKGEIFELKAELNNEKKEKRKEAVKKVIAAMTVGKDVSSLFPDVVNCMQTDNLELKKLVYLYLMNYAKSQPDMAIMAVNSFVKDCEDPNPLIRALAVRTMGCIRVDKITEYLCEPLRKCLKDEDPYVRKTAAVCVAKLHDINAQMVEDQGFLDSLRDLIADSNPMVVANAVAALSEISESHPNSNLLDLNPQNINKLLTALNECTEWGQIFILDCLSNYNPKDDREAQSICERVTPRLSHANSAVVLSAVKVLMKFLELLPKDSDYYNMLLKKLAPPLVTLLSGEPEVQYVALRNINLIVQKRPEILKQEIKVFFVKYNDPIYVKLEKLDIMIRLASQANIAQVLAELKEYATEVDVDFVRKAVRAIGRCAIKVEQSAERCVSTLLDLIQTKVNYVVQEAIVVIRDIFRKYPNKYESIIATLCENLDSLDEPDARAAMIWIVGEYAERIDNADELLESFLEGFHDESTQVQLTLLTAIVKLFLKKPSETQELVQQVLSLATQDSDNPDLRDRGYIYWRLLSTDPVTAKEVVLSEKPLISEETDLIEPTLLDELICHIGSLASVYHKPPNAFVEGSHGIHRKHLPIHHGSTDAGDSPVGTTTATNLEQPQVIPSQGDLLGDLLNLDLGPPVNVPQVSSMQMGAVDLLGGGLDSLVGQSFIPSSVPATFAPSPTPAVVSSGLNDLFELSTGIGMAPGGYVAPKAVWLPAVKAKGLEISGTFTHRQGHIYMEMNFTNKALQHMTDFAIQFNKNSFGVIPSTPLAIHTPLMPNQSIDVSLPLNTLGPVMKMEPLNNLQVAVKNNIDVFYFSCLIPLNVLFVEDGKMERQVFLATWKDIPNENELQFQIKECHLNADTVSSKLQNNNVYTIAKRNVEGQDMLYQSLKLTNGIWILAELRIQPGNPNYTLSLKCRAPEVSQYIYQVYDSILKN
UniProt P34947: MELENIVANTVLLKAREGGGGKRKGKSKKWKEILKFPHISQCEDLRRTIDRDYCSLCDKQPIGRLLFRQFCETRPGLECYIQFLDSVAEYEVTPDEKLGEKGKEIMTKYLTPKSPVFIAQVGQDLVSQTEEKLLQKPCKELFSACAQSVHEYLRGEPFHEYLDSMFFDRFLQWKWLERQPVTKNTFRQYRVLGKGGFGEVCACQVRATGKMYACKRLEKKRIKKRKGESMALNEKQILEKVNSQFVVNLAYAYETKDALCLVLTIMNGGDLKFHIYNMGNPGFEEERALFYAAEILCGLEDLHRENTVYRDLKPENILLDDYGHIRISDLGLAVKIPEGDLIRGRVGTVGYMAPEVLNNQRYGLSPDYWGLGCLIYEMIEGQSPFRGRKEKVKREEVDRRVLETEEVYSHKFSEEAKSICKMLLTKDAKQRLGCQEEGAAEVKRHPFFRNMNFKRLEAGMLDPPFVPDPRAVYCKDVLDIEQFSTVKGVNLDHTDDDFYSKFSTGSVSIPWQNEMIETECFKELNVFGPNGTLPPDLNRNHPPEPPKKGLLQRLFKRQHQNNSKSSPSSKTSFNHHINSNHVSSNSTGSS
UniProt P49407: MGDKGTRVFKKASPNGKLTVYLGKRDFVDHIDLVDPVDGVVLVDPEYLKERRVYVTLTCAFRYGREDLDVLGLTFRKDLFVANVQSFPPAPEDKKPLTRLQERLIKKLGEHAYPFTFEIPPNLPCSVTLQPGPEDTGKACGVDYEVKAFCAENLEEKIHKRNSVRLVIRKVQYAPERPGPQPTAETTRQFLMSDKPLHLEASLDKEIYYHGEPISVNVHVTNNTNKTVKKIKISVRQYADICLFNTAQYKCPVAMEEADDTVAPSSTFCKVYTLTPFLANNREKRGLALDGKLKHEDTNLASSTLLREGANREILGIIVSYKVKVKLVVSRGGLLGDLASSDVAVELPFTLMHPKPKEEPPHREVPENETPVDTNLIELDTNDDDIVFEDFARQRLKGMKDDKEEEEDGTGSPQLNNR
UniProt P32121: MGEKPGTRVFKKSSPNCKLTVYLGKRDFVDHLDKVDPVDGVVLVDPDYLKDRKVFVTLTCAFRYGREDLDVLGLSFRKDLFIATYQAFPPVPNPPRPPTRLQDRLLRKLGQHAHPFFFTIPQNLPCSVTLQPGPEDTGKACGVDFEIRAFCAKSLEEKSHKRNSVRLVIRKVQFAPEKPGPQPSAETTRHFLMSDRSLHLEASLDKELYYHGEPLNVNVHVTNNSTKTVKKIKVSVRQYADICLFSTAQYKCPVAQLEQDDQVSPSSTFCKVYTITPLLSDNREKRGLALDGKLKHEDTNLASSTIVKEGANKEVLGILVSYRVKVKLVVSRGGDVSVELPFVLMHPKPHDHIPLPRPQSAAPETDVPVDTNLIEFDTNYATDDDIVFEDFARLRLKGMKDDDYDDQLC

Row | binding [1] | binding [2] | binding (APJ-Venus) | Substance
1 | binds |  |  | GRK5-GFP2 (from UniProt P34947 1-590) (enzyme)
2 |  | binds | binds | β-arrestin1-Rluc (from UniProt P49407 1-418)
3 |  | binds |  | β-arrestin2-Rluc (from UniProt P32121 1-409)
